Experimental data: PMC4713147

By UniProt entry, the sequences of proteins in these tests, tags left out. Where a name states a change or a piece, a line headed by the entry shows the natural chain unless it says otherwise.
UniProt P0ACF8: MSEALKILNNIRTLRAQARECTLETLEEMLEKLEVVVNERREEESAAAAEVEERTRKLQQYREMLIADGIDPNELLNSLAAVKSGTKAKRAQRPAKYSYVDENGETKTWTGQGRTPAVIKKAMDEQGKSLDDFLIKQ

Target: H-NS (Escherichia coli) (UniProt P0ACF8)
Experiment: EMSA
Settings: apparent Kd, 200 pM DNA; EMSA: H-NS 0-500 nM, 200 pM 32P-labelled DNA, 4% polyacrylamide gel run at 4 C; recombinant protein; label: 5'-32P; probe letters rebuilt from the primers and the genome

Sequence: GTTTGGCGAACTCTTGGGTAAGGTTAACAATGTCCTTTCAATCAGTTCAGCAAGGTCCAAAGCGTTAACAGCTTCCATGATGAAATAAAAAAAAGCCTGGCAAGGAGCCAGGCTGCACAAAAGAGCGGGTTTGTATTCCGCATCCAATCAATCAAGAAGGAGTATAGCACACAGGTACTGAAGTGAAAAAATGTGATTCGCGATAAACAAAATATCTATCATTGCTCTAATTGATTGCTATAATTGAGCCGCAGTTTTTGTCAACTACGAAGACGTTGCCATTACTTCACTCCTTGACATCATTGGCGGCCATTAGGCCGCCTTTTTTTTGCCATATGAAAACAATCGAACAAAAAATTGAACAGTGCCGCAAGTGGCAGAAGGCAGCCAGAGAACGAGCGATCG (double strand) [ref 5' regulatory region]
- Kd: 0.01 µM

Construct, isoform or probe ends are uncertain for at least one entry.
